From the supplement of paper PMC12282887

Test system: Escherichia coli BW25113
Experiment: growth (OD600 area under curve, 8 h) (OD600 x h); higher = more growth
Procedure: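 E. coli BW25113 reporter strains (wild type, ΔmarA, ΔsoxS, Δrob, each carrying one of 8 lux reporter plasmids) were grown in 40 µl LB in 384-well plates at 37°C, 800 rpm, with each compound at 4 two-fold concentrations, in biological duplicates. Growth is the baseline-corrected OD600 area under the curve over 8 h (0-8 h WT, 1-9 h deletion strains).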

CN(C)C(=O)C(CCN1CCC(O)(c2ccc(Cl)cc2)CC1)(c1ccccc1)c1ccccc1 [Loperamide]
growth
Conditions | reporter plasmid: EVC | reporter plasmid: acrABp | reporter plasmid: marRABp | reporter plasmid: micFp | reporter plasmid: ompFp | reporter plasmid: robp | reporter plasmid: soxSp | reporter plasmid: tolCp
32.1 µg/ml, genetic background: wild type | 2.65 | 2.97 | 3.32 | 3 | 2.95 | 2.97 | 2.84 | 2.7
32.1 µg/ml, genetic background: ΔmarA | 2.85 | 3.97 | 3.18 | 2.65 | 2.83 | 3.23 | 2.73 | 2.86
32.1 µg/ml, genetic background: Δrob | 2.35 | 3.09 | 3.44 | 2.83 | 2.41 | 2.81 | 2.61 | 2.88
32.1 µg/ml, genetic background: ΔsoxS | 2.49 | 2.93 | 3.3 | 2.47 | 2.7 | 3.22 | 2.76 | 2.56
64.2 µg/ml, genetic background: wild type | 2.72 | 2.92 | 3.21 | 2.9 | 2.73 | 2.86 | 2.71 | 2.8
64.2 µg/ml, genetic background: ΔmarA | 2.94 | 3.395 | 2.91 | 2.88 | 2.77 | 3.21 | 2.81 | 2.89
64.2 µg/ml, genetic background: Δrob | 2.39 | 2.84 | 3.393 | 2.81 | 2.56 | 2.846 | 2.5 | 2.95
64.2 µg/ml, genetic background: ΔsoxS | 2.59 | 3.02 | 3.64 | 2.53 | 2.86 | 3.27 | 3.01 | 2.7
128.4 µg/ml, genetic background: wild type | 2.9 | 3.181 | 3.251 | 2.88 | 3.107 | 3.27 | 2.76 | 2.8
128.4 µg/ml, genetic background: ΔmarA | 2.87 | 4.34 | 3.34 | 2.81 | 3.15 | 3.61 | 2.89 | 2.8
128.4 µg/ml, genetic background: Δrob | 2.32 | 2.99 | 3.4 | 2.84 | 2.72 | 2.85 | 2.58 | 2.85
128.4 µg/ml, genetic background: ΔsoxS | 2.7 | 2.96 | 3.38 | 2.59 | 3.17 | 3.75 | 2.96 | 2.65
256.8 µg/ml, genetic background: wild type | 2.73 | 1.64 | 2.07 | 2.44 | 2.02 | 2.01 | 2.52 | 2.58
256.8 µg/ml, genetic background: ΔmarA | 2.583 | 2.101 | 1.88 | 2.81 | 1.8 | 2.57 | 2.547 | 2.54
256.8 µg/ml, genetic background: Δrob | 2.14 | 1.67 | 1.99 | 2.46 | 1.63 | 1.6 | 2.35 | 2.51
256.8 µg/ml, genetic background: ΔsoxS | 2.57 | 1.999 | 2.06 | 2.27 | 2.18 | 1.7 | 2.38 | 2.57

C[C@@H](O)[C@H]1C(=O)N2C(C(=O)O)=C(SCCNC=N)C[C@H]12 [Imipenem]
growth
Conditions | reporter plasmid: EVC | reporter plasmid: acrABp | reporter plasmid: marRABp | reporter plasmid: micFp | reporter plasmid: ompFp | reporter plasmid: robp | reporter plasmid: soxSp | reporter plasmid: tolCp
0.02 µg/ml, genetic background: wild type | 2.9 | 2.86 | 3.22 | 3.22 | 2.92 | 3.2 | 3.01 | 3.15
0.02 µg/ml, genetic background: ΔmarA | 3.58 | 4.3 | 3.76 | 3.4 | 3.48 | 3.75 | 3.17 | 3.03
0.02 µg/ml, genetic background: Δrob | 2.82 | 2.75 | 3.4 | 3.27 | 2.76 | 2.65 | 3.01 | 3.3
0.02 µg/ml, genetic background: ΔsoxS | 3.12 | 3.17 | 3.19 | 2.6 | 2.8 | 2.87 | 3.09 | 2.96
0.04 µg/ml, genetic background: wild type | 2.9 | 2.82 | 3.246 | 3.21 | 2.89 | 3.12 | 2.99 | 3.09
0.04 µg/ml, genetic background: ΔmarA | 3.5 | 4.22 | 3.7 | 3.5 | 3.63 | 4.07 | 3.05 | 3.13
0.04 µg/ml, genetic background: Δrob | 2.78 | 2.67 | 3.55 | 3.29 | 2.58 | 2.78 | 2.72 | 3.09
0.04 µg/ml, genetic background: ΔsoxS | 2.94 | 2.9 | 3.2 | 2.6 | 2.66 | 2.91 | 3 | 2.86
0.079 µg/ml, genetic background: wild type | 2.91 | 2.8 | 3.357 | 3.24 | 3.06 | 3.28 | 3.071 | 3.2
0.079 µg/ml, genetic background: ΔmarA | 3.48 | 4.3 | 3.91 | 3.62 | 3.72 | 3.9 | 3.22 | 3.12
0.079 µg/ml, genetic background: Δrob | 2.62 | 2.9 | 3.55 | 3.21 | 2.72 | 2.5 | 3.02 | 3.15
0.079 µg/ml, genetic background: ΔsoxS | 3 | 3.12 | 3.15 | 2.669 | 2.59 | 2.88 | 2.89 | 3.03
0.16 µg/ml, genetic background: wild type | 2.78 | 2.91 | 3.27 | 2.93 | 2.82 | 3.03 | 2.999 | 2.98
0.16 µg/ml, genetic background: ΔmarA | 3.35 | 4 | 3.71 | 3.31 | 3.48 | 3.88 | 2.88 | 3.06
0.16 µg/ml, genetic background: Δrob | 2.86 | 2.607 | 3.26 | 2.93 | 2.6 | 2.44 | 2.84 | 3.02
0.16 µg/ml, genetic background: ΔsoxS | 2.78 | 2.71 | 2.99 | 2.15 | 2.5 | 2.73 | 2.74 | 2.91

O=C(/C=C/C=C/c1ccc2c(c1)OCO2)N1CCCCC1 [Piperine]
growth
Conditions | reporter plasmid: EVC | reporter plasmid: acrABp | reporter plasmid: marRABp | reporter plasmid: micFp | reporter plasmid: ompFp | reporter plasmid: robp | reporter plasmid: soxSp | reporter plasmid: tolCp
17.8 µg/ml, genetic background: wild type | 3.342 | 3.26 | 3.47 | 3.19 | 3.28 | 3.54 | 3.11 | 3.28
17.8 µg/ml, genetic background: ΔmarA | 3.45 | 4.58 | 3.88 | 3.62 | 3.73 | 4.23 | 3.41 | 3.435
17.8 µg/ml, genetic background: Δrob | 3.04 | 3.22 | 3.59 | 3.12 | 2.94 | 2.92 | 2.77 | 3.12
17.8 µg/ml, genetic background: ΔsoxS | 3.33 | 3.16 | 3.32 | 3.17 | 3.26 | 3.41 | 3.21 | 3.38
35.7 µg/ml, genetic background: wild type | 3.291 | 3.18 | 3.41 | 3.02 | 3.23 | 3.49 | 3.08 | 3.19
35.7 µg/ml, genetic background: ΔmarA | 3.04 | 3.99 | 3.63 | 3.32 | 3.52 | 3.94 | 2.74 | 3.07
35.7 µg/ml, genetic background: Δrob | 2.99 | 3.07 | 3.45 | 2.99 | 2.79 | 2.7 | 2.54 | 2.97
35.7 µg/ml, genetic background: ΔsoxS | 3.12 | 3.32 | 3.32 | 2.89 | 3.13 | 3.2 | 2.94 | 3.26
71.3 µg/ml, genetic background: wild type | 3.31 | 3.24 | 3.43 | 2.98 | 3.2 | 3.31 | 2.91 | 3.19
71.3 µg/ml, genetic background: ΔmarA | 3.2 | 4.18 | 3.75 | 3.26 | 3.59 | 4.06 | 3.12 | 3.13
71.3 µg/ml, genetic background: Δrob | 2.97 | 3.23 | 3.55 | 3.09 | 2.83 | 2.81 | 2.52 | 3.2
71.3 µg/ml, genetic background: ΔsoxS | 3.18 | 3.13 | 3.45 | 2.95 | 3.04 | 3.24 | 2.825 | 3.28
142.7 µg/ml, genetic background: wild type | 3.214 | 3.11 | 3.2 | 2.72 | 3.07 | 2.91 | 2.9 | 3.02
142.7 µg/ml, genetic background: ΔmarA | 2.956 | 3.79 | 3.42 | 3.33 | 3.45 | 3.94 | 2.97 | 3.07
142.7 µg/ml, genetic background: Δrob | 2.93 | 2.78 | 3.36 | 3.01 | 2.57 | 2.28 | 2.48 | 3.15
142.7 µg/ml, genetic background: ΔsoxS | 2.98 | 3.11 | 3.01 | 2.76 | 2.75 | 2.73 | 2.69 | 3.23

These are raw signals, not scaled to a control.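 Maximum concentrations were near the MIC for antimicrobials, 500 µM for most other compounds, and as high as 1 mM for known inducer-like compounds. Deletion strains began with a tenfold smaller inoculum, and wells with growth under 10% of the overall median counted as non-growing.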
